# Results: PubChem BioAssay AID1439 (NMMLSC, 2008)
# Sequences of proteins named here, by UniProt entry; tags and fusion partners are left off.
# UniProt P09471, whole entry, looked up: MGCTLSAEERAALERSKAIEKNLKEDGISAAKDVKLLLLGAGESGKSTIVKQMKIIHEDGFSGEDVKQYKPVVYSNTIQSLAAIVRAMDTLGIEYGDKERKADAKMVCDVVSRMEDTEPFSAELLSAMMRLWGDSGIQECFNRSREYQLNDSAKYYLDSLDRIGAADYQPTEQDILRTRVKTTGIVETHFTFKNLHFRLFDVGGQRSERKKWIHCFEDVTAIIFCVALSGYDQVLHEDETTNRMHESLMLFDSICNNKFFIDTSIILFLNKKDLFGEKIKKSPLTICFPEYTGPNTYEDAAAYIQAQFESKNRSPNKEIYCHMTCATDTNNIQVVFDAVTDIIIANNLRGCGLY
# The whole screen tested about 220,000 compounds, of which about 770 (0.35%) were called active. Inconclusive results, whose numbers are uncertain, are shown with a selection of clear calls. No stated cut-off is given here; in the data, active means binding response below about 49% or above about 150%; inconclusive means no clear call, values can overlap the other calls; inactive means in between.
# Target: Guanine nucleotide-binding protein G(o) subunit alpha (Homo sapiens) (UniProt P09471)
# Test: RGS7-Galphao binding modulators, primary screen, biochemical, multiplexed bead flow cytometry (AID 1439);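 further: fluorescent Galphao held in activated GDP-AlF4 state binding bead-coupled RGS7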
# Settings: at 10 µM, actives lie on both sides
row,SMILES,binding response (% of control)
1,COc1ccc(CC(=O)Nc2ccc(S(=O)(=O)Nc3ncccn3)cc2)cc1OC,inconclusive: 80.1%
2,NS(=O)(=O)c1ccc(NC(=O)COC(=O)CCc2c[nH]c3ccccc23)cc1,inconclusive: 112%
3,CCOC(=O)CNC(=O)CSc1nnc(-c2c[nH]c3ccccc23)n1CC,inconclusive: 89.5%
4,O=C(NCc1ccccc1)NC1CCS(=O)(=O)C1 (stereo not drawn),inconclusive: 103%
5,COc1ccc2cc(C(=O)C3CCCN(C(=O)c4cc5nc(C)cc(C)n5n4)C3)ccc2c1 (stereo not drawn),inactive: 98.9%
6,COc1ccccc1OCCNC(=O)Nc1cc(F)c(F)cc1Cl,inconclusive: 69%
7,COc1ccc(/C=N/NC(=S)Nc2ccccc2)cc1COc1ccc(Br)cc1,inconclusive: 91.6%
8,O=C(/C(C=Nc1cccc(C(F)(F)F)c1)=C(/O)c1ccco1)C(F)(F)F,inactive: 81.3%
9,O=c1[nH]c(SCc2nc3c(cnn3-c3ccccc3)c(=O)[nH]2)nc2ccccc12,inactive: 99.4%
10,Cc1cc(C)nc(NC(=NCCc2c[nH]c3ccccc23)NC(=O)Nc2ccc(Cl)c(Cl)c2)n1,inactive: 106%
11,O=C(NCc1ccccc1)C1CCN(S(=O)(=O)N2CCCCCC2)CC1,inactive: 99.1%
12,O=C(N=Nc1c(O)[nH]c2ccccc12)c1cc(-c2cccs2)[nH]n1,inconclusive: 114%
13,O=C(O)c1cc(-c2c[nH]c3ccccc23)nc2cc3ccccc3cc12,inconclusive: 112%
14,CC1=C(C(=O)Nc2ccccn2)C(c2ccc3c(c2)OCO3)C2=C(CC(C)(C)CC2=O)N1 (stereo not drawn),inactive: 99.3%
15,CCOC(=O)C1(Cc2cccc(OC)c2)CCN(Cc2cnc(C)s2)CC1,inactive: 88.6%
16,Cc1cc(C)nc(NC(=NCCc2c[nH]c3ccccc23)NC(=O)C(C)(C)C)n1,inconclusive: 109%
17,CC(=O)/C(=N/Nc1ccccc1)Sc1nnc(C(O)c2ccccc2)n1-c1ccccc1 (stereo not drawn),inactive: 96%
18,CN1CCN(C(=S)C(=O)Nc2ccc(Br)cc2)CC1,inconclusive: 74.5%
19,CC1(c2nnc(-c3ccc(F)cc3)o2)CC(c2cccc(Cl)c2)=NO1 (stereo not drawn),inconclusive: 121%
20,O=C(CN1C(=O)C2CC=CCC2C1=O)Nc1nc2ccccc2s1 (stereo not drawn),inactive: 98.3%
21,CN1C(=O)C2(c3ccccc31)c1c(oc3ccccc3c1=O)C(=O)N2CCO (stereo not drawn),inconclusive: 206%
22,O=C(c1ccc2c(c1)OCO2)N1CCC2(CC1)Oc1ccc(Cl)cc1C(=O)C21CC(c2ccc(Cl)cc2)=NO1 (stereo not drawn),inconclusive: 110%
23,O=C(O)CCC(CNS(=O)(=O)c1ccccc1)C(F)(F)F (stereo not drawn),inactive: 105%
